Results as given in PMC9810662.
Construct, isoform or probe ends are uncertain for at least one entry.

Each sequence was assayed on SREBP-bHLH (Ganoderma lingzhi) (assay: EMSA). Conditions: Lightshift Chemiluminescent EMSA Kit (Thermo 20148) per manufacturer; 0.6 ug SREBP-bHLH; 200x unlabelled competitor; pH and temperature not stated; recombinant protein; protein details: His-tag (pTriEx4); label: 3' biotin.

Binding result, binds:
ACGAGGTGTGAGCGAGGAGTGGGGAACTGC (double strand) [g4309pro]
AGGGACACATGAGAAGGAGACGATTGAGACGGGAA (double strand) [g4280pro]
AGTGATAGGAGGAGGAGAGACTGGGGGACGGGGGTGCGAA (double strand) [g3847pro]
ATCCGCGAGAGCAGAGAGGGCGGAGGACGGGGTGGTG (double strand) [g805pro]
CACATCCCGCCCTCCTCTTCGTCCACGCCAGC (double strand) [g1941pro]
CTGGCAATCTTCTGGCATCTCTGATTCTGA (double strand) [g6347pro]
GCTTGCTATTTTCGCCCTCTTCACCATCGACTT (double strand) [g5041pro]
TCTCCGCTTCTCTTCTTCCTCTGAACCTT (double strand) [g4989pro]
TGGGGCAGCCTGGACAGCGAAAAGCATGGATGGGA (double strand) [g3941pro]
TTCACCCCGTTCGCCCCGTTCGCCCCGTTCGCCCCATTCACCCCGTTC (double strand) [g1208pro]
